PubChem BioAssay AID1508597 | Cure First | 2020

Purpose: 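Survival screen with siRNA in ovarian cancer cells derived from patients, with or without rucaparib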 (primary screen)
System: human ovarian carcinoma lines grown from tumours: OCI-P5x (papillary serous) and OCI-C5x (clear cell)
Reagents: siRNA pool against human genes, 1.25 pmol siRNA per well
Timing: 72 h or 96 h, depending on the cell culture
Challenge: rucaparib 20 µM (about IC30) or vehicle, present until read-out
Rucaparib or vehicle: Rucaparib
Cell line: OCI-P5x (serous)
Measured: 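ATP luminescence measured at 72 or 96 h according to the culture, then normalised and expressed as percent viability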
Scale: viability, normalised: higher = more viable cells remaining
Rule for the call: 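a well counts as a hit if its normalised viability is under 80 percent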
Calls: active = viability under 80%; inactive = viability 80% or more
Shown is an unselected part of the about 2,100 reagents, under one of the conditions tested. 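Calls flag viability under 80% in either arm, not effects specific to rucaparib; the reference for percent is not stated.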 A number with no mark means an inactive call. Reagent sequences are not shown. Not given: the 100% reference.

EGFR, technical replicate 1
- viability, normalised (%): 95.2

EGFR, technical replicate 2
- viability, normalised (%): 91.6

EGFR, technical replicate 3
- viability, normalised (%): 84.9

RALB, technical replicate 1
- viability, normalised (%): 64.5 (active)

RALB, technical replicate 2
- viability, normalised (%): 74.6 (active)

RALB, technical replicate 3
- viability, normalised (%): 47.4 (active)

PRDM14, technical replicate 1
- viability, normalised (%): 37.5 (active)

PRDM14, technical replicate 2
- viability, normalised (%): 37.9 (active)

PRDM14, technical replicate 3
- viability, normalised (%): 48.7 (active)

KAT5, technical replicate 1
- viability, normalised (%): 51.3 (active)

KAT5, technical replicate 2
- viability, normalised (%): 52.9 (active)

KAT5, technical replicate 3
- viability, normalised (%): 53.7 (active)

NCOR1, technical replicate 1
- viability, normalised (%): 22.6 (active)

NCOR1, technical replicate 2
- viability, normalised (%): 34.3 (active)

NCOR1, technical replicate 3
- viability, normalised (%): 37.3 (active)

CRAMP1, technical replicate 1
- viability, normalised (%): 86.9

CRAMP1, technical replicate 2
- viability, normalised (%): 64.1 (active)

CRAMP1, technical replicate 3
- viability, normalised (%): 73.4 (active)

RIPK2, technical replicate 1
- viability, normalised (%): 79.5 (active)

RIPK2, technical replicate 2
- viability, normalised (%): 94.3

RIPK2, technical replicate 3
- viability, normalised (%): 98.9

GDPD3, technical replicate 1
- viability, normalised (%): 75.2 (active)

GDPD3, technical replicate 2
- viability, normalised (%): 82.1

GDPD3, technical replicate 3
- viability, normalised (%): 77.6 (active)

CKMT2, technical replicate 1
- viability, normalised (%): 104

CKMT2, technical replicate 2
- viability, normalised (%): 102

CKMT2, technical replicate 3
- viability, normalised (%): 103

MORC4, technical replicate 1
- viability, normalised (%): 83.2

MORC4, technical replicate 2
- viability, normalised (%): 74 (active)

MORC4, technical replicate 3
- viability, normalised (%): 82

MUTYH, technical replicate 1
- viability, normalised (%): 62.3 (active)

MUTYH, technical replicate 2
- viability, normalised (%): 86.7

MUTYH, technical replicate 3
- viability, normalised (%): 81.2

Individual results from above.
Entry for MORC4, technical replicate 2 in “viability, normalised (%)”: 74 (active)
For “viability, normalised (%)”, CKMT2, technical replicate 3 has 103
Under “viability, normalised (%)”, GDPD3, technical replicate 3 shows 77.6 (active)
Result for PRDM14, technical replicate 1 in “viability, normalised (%)”: 37.5 (active)
Value of CKMT2, technical replicate 1 in “viability, normalised (%)”: 104
